Amino acid sequences for entries named in this document (tags omitted). A change or cut given only in a name is not applied to a line headed by its entry.
UniProt P15976: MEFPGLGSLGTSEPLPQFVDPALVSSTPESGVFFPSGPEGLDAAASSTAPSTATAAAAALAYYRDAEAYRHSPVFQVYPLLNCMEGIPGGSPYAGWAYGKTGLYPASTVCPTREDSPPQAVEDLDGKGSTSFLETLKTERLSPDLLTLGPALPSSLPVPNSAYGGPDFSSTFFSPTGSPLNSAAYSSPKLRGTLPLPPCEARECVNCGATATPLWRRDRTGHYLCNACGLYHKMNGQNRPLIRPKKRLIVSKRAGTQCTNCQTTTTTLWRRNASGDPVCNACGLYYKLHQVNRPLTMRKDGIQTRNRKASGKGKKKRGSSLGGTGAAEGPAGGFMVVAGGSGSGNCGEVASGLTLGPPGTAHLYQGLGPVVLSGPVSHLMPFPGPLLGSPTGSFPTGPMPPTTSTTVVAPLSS

In paper PMC3364894:

Molecular target: GATA-1 (UniProt P15976)
Test: EMSA antibody supershift
Details: nuclear extracts of HEL, TF-1, UT-7, MEG-01, shift competed by excess unlabeled probe, anti-CD63 no supershift; protein in an extract; label: biotin 5'

“CCCGGCATTATCACGGGGACAC (double strand) [GATA-301 probe (MTG16 promoter)]”: binds.

For at least one entry, the source does not settle the construct or the ends of the probe. Results from cells or extracts need not show a direct contact.
